For 2 molecules, binding results are on record in publication PMC4703059.

No constants are given. Whether binding was seen depends on the method and setting. In cells and extracts the contact can be indirect. These calls come from enrichment with a bait or labelling near it, and not all partners need be listed. Where a sequence is shown, tags or fusion partners need not be part of it.

Test [1] concerns the target T1, Lst7-protein A (genomically tagged) (S. cerevisiae) (UniProt P53237).
T1 sequence: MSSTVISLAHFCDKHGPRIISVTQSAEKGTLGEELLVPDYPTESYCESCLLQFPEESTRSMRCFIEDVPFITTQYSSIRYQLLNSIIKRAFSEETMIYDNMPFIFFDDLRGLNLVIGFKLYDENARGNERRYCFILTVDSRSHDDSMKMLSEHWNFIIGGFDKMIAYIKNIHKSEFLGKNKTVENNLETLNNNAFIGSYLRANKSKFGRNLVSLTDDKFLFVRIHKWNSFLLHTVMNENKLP
The experiment in a line: affinity purification with mass spectrometry; C-terminal protein A genomically tagged strains; immunoprecipitation with IgG-coated magnetic beads in buffers of varying stringency (75-500 mM NaCl; TC250); bands identified by MALDI fingerprinting or LC-MS/MS.

Test [2] has as its target T2, Lst4-protein A (genomically tagged) (S. cerevisiae) (UniProt P34239).
T2 sequence: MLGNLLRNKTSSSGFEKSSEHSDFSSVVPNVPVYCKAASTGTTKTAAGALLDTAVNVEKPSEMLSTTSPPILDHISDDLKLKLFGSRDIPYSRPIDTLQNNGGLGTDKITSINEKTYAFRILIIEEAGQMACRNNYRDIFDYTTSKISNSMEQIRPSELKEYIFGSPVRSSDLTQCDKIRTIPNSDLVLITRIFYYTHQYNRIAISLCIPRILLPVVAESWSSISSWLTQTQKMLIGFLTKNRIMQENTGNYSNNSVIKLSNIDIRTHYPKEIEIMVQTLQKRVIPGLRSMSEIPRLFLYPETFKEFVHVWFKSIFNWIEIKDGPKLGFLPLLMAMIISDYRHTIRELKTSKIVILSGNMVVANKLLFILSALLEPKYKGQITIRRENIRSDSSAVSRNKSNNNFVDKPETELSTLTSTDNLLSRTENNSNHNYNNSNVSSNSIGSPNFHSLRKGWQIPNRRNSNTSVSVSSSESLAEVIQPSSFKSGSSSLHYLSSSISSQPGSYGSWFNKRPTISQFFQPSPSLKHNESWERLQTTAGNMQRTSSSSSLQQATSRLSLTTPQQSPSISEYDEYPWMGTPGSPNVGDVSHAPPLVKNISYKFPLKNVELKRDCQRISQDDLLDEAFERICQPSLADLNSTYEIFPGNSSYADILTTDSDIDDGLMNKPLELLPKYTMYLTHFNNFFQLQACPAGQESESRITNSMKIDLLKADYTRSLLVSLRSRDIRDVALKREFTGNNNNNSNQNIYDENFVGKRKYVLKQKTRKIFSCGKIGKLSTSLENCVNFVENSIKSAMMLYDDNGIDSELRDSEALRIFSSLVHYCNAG
The test is described as above.

B1: Lst4 (endogenous, yeast lysate) (protein, UniProt P34239 1-828)
chain: MLGNLLRNKTSSSGFEKSSEHSDFSSVVPNVPVYCKAASTGTTKTAAGALLDTAVNVEKPSEMLSTTSPPILDHISDDLKLKLFGSRDIPYSRPIDTLQNNGGLGTDKITSINEKTYAFRILIIEEAGQMACRNNYRDIFDYTTSKISNSMEQIRPSELKEYIFGSPVRSSDLTQCDKIRTIPNSDLVLITRIFYYTHQYNRIAISLCIPRILLPVVAESWSSISSWLTQTQKMLIGFLTKNRIMQENTGNYSNNSVIKLSNIDIRTHYPKEIEIMVQTLQKRVIPGLRSMSEIPRLFLYPETFKEFVHVWFKSIFNWIEIKDGPKLGFLPLLMAMIISDYRHTIRELKTSKIVILSGNMVVANKLLFILSALLEPKYKGQITIRRENIRSDSSAVSRNKSNNNFVDKPETELSTLTSTDNLLSRTENNSNHNYNNSNVSSNSIGSPNFHSLRKGWQIPNRRNSNTSVSVSSSESLAEVIQPSSFKSGSSSLHYLSSSISSQPGSYGSWFNKRPTISQFFQPSPSLKHNESWERLQTTAGNMQRTSSSSSLQQATSRLSLTTPQQSPSISEYDEYPWMGTPGSPNVGDVSHAPPLVKNISYKFPLKNVELKRDCQRISQDDLLDEAFERICQPSLADLNSTYEIFPGNSSYADILTTDSDIDDGLMNKPLELLPKYTMYLTHFNNFFQLQACPAGQESESRITNSMKIDLLKADYTRSLLVSLRSRDIRDVALKREFTGNNNNNSNQNIYDENFVGKRKYVLKQKTRKIFSCGKIGKLSTSLENCVNFVENSIKSAMMLYDDNGIDSELRDSEALRIFSSLVHYCNAG
For the molecule B1, the binding entry in test [1] is “binds”.

B2: Lst7 (endogenous, yeast lysate) (protein, UniProt P53237 1-242)
chain: MSSTVISLAHFCDKHGPRIISVTQSAEKGTLGEELLVPDYPTESYCESCLLQFPEESTRSMRCFIEDVPFITTQYSSIRYQLLNSIIKRAFSEETMIYDNMPFIFFDDLRGLNLVIGFKLYDENARGNERRYCFILTVDSRSHDDSMKMLSEHWNFIIGGFDKMIAYIKNIHKSEFLGKNKTVENNLETLNNNAFIGSYLRANKSKFGRNLVSLTDDKFLFVRIHKWNSFLLHTVMNENKLP
As to B2, the binding entry in test [2] was “binds”.
